Results reported in paper PMC10830565 (2024).
These are yes or no findings as the source states them, for the method shown. Binding seen in cells or lysates may run through a third protein. Some entries that bind do so weakly or less than the wild type. Tags and fused reporters may be left off the sequences shown.

Amino acid sequences for entries named in this document (tags omitted).
UniProt Q6EVK6: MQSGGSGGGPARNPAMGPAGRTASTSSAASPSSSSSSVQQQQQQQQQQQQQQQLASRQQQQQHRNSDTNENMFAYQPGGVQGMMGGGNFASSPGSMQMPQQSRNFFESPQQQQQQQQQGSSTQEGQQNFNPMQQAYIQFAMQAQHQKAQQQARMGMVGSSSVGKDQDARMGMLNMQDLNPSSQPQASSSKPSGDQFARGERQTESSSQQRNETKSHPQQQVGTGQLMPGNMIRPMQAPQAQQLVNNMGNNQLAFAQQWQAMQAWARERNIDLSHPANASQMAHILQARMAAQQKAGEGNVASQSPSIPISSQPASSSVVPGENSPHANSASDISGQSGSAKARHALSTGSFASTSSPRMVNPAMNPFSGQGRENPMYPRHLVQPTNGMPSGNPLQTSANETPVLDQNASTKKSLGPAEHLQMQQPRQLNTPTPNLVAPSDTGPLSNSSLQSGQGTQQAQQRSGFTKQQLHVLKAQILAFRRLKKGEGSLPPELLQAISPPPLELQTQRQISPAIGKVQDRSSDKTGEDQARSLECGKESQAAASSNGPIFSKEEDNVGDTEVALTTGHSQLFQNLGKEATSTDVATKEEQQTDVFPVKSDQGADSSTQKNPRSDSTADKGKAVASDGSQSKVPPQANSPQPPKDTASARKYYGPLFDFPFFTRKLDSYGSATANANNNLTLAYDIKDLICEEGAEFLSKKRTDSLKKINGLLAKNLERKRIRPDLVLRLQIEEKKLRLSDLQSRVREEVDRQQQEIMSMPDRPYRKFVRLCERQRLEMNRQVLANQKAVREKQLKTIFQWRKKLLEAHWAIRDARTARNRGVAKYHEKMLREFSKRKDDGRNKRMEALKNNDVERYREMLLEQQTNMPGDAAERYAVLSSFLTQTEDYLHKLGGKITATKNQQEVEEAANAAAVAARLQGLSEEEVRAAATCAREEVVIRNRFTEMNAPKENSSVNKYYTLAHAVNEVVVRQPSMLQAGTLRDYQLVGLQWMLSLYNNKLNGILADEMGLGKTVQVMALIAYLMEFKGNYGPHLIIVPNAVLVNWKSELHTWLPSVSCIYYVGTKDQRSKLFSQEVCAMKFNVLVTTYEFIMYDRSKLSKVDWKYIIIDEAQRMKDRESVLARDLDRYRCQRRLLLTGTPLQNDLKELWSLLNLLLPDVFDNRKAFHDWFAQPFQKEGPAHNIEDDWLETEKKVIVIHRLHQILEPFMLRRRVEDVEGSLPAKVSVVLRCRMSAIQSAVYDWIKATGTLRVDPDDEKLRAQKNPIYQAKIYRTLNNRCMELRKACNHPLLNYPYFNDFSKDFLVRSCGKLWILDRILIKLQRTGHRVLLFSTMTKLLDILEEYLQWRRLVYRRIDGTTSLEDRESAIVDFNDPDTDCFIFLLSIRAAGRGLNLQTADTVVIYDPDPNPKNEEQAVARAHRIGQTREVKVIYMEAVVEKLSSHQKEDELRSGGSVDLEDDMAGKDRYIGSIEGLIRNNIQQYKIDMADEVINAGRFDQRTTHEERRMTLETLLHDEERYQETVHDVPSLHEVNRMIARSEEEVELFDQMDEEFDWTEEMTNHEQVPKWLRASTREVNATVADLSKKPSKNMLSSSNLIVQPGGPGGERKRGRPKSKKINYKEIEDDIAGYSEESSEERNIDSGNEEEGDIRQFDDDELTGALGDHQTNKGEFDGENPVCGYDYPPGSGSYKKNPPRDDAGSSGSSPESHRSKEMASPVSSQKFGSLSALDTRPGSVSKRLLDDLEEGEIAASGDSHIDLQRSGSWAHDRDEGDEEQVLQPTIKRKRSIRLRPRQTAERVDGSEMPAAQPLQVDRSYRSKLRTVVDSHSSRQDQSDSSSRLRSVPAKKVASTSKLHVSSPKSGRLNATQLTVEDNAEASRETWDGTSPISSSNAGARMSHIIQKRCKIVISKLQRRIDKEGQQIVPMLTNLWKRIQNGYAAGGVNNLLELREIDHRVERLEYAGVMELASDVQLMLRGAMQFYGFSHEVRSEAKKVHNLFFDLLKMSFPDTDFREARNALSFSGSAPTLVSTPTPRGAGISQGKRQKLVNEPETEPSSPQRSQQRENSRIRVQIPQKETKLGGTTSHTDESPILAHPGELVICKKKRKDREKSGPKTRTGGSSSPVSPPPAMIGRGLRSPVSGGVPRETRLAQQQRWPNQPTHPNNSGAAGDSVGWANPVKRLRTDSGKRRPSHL

Target: T1, SWI3C-3×FLAG (Arabidopsis thaliana) (UniProt Q9XI07)
T1 sequence: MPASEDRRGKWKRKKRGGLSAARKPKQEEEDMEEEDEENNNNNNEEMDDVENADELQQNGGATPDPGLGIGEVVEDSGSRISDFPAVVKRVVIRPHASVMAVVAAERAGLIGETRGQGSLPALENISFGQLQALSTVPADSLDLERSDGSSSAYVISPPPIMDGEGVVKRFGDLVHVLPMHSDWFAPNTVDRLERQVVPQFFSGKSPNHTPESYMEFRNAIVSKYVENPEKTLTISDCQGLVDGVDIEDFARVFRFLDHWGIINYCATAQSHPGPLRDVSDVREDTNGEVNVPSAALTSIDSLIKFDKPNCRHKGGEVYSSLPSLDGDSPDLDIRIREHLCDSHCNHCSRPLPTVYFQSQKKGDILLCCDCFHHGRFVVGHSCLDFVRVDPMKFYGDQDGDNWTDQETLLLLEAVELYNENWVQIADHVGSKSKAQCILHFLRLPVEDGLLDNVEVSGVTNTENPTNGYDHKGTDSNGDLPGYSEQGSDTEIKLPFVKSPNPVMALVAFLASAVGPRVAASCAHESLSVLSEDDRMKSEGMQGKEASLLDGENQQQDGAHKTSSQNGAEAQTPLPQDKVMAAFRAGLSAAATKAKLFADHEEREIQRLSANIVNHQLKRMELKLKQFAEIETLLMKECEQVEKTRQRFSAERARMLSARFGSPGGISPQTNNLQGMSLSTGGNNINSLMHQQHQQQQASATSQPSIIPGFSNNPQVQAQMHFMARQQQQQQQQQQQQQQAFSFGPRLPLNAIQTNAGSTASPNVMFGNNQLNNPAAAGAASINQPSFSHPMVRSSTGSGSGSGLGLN
Assay: co-IP; Arabidopsis plants with SWI3C-3×FLAG and BRM-GFP, WT and bcl7a bcl7b backgrounds; co-IP with anti-FLAG antibody, immunoblot

With BRM-GFP (from UniProt Q6EVK6 1-2193) the binding was “binds”.
